Reference: patent US20240400596A1, “PLATINUM-BASED PHOTOINITIATOR AND PHOTOCROSSLINKER, THEIR USE FOR ADDUCT FORMATION” (City University of Hong Kong, priority 2023, published 2024)

Assay: Gelation assay (vial inversion)
Conditions: upon irradiation 365 nm; for formation of gelatin hydrogel: 5% gelatin; for hydrogelation of acrylamide: 10% acrylamide/bis-acrylamide (29:1)

**Q.** Which “formation of gelatin hydrogel” value does the source give for `CC(=O)[O][Pt]([NH2])([NH2])([Cl])([Cl])[O]C(C)=O` [cisPt(IV)-1] here?
**A.** Its value is “clearly observed”.

**Q.** And the hydrogelation of acrylamide?
**A.** The hydrogelation of acrylamide was “transformed into a solid-like gel”.

**Q.** What does the source list for `N.N.[Cl][Pt][Cl]` [cisplatin, reference compound]?
**A.** formation of gelatin hydrogel: not; hydrogelation of acrylamide: not
